# Assay results as given in patent US20230038883A1, “SPECIFIC HOST FACTOR OF HEPATITIS B VIRUS INFECTION, AND USE THEREOF” (priority 2020, published 2023).
# At least one structure is not confirmed: it was looked up by name or label, or the drawing left a doubt.
# Molecular target: T1, SCARF2 EGF4-6 proteins (Homo sapiens, UniProt Q96GP6)
# T1 construct: Precision (protease site) tag (internal); human Fc tag (IgG1) (C); made in house; host or cells: 293F cells (pCAGGs vector), purified with Protein A beads
# T1 sequence (Q96GP6 183-270): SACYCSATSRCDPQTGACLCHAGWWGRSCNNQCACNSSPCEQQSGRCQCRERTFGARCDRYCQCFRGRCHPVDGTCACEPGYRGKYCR
# Assay: ForteBio Octet binding measurement
# Details: polypeptide vs SCARF2 EGF4-6 proteins, read-out: dissociation constant (Kd)
smiles,measurement,value
CC[C@H](C)[C@H](NC(=O)CNC(=O)[C@H](CCC(N)=O)NC(=O)[C@H](C)NC(=O)[C@@H](N)CCC(N)=O)C(=O)N[C@@H](CC(C)C)C(=O)N[C@@H](CCC(N)=O)C(=O)N[C@H](C(=O)N[C@@H](CC(C)C)C(=O)N1CCC[C@H]1C(=O)N[C@@H](C)C(=O)N[C@@H](CC(N)=O)C(=O)N1CCC[C@H]1C(=O)N1CCC[C@H]1C(=O)N1CCC[C@H]1C(=O)N[C@@H](C)C(=O)N[C@@H](CO)C(=O)N[C@H](C(=O)N[C@@H](CC(N)=O)C(=O)N[C@@H](CCCNC(=N)N)C(=O)N[C@@H](CCC(N)=O)C(=O)N[C@@H](CO)C(=O)NCC(=O)N[C@@H](CCCNC(=N)N)C(=O)N[C@@H](CCC(N)=O)C(=O)N1CCC[C@H]1C(=O)N[C@H](C(=O)N1CCC[C@H]1C(=O)N[C@@H](CC(C)C)C(=O)N[C@@H](CO)C(=O)N1CCC[C@H]1C(=O)N1CCC[C@H]1C(=O)N[C@@H](CC(C)C)C(=O)N[C@@H](CCCNC(=N)N)C(=O)N[C@@H](CC(N)=O)C(=O)N[C@H](C(=O)N[C@@H](Cc1c[nH]cn1)C(=O)N1CCC[C@H]1C(=O)N[C@@H](CCC(N)=O)C(=O)N[C@@H](C)C(=O)O)[C@@H](C)O)[C@@H](C)O)[C@@H](C)O)[C@@H](C)O [peptide^69-108],Kd,58 nM
